Source: paper doi:10.1101/2020.05.24.113076
No constants are given. Whether binding was seen depends on the method and setting. In cells and extracts the contact can be indirect. Binding can be weak; no strength is given. For some of these results: Tags and fused reporters may be left off the sequences shown.

Amino acid sequences for entries named in this document (tags omitted).
UniProt Q14289, whole entry: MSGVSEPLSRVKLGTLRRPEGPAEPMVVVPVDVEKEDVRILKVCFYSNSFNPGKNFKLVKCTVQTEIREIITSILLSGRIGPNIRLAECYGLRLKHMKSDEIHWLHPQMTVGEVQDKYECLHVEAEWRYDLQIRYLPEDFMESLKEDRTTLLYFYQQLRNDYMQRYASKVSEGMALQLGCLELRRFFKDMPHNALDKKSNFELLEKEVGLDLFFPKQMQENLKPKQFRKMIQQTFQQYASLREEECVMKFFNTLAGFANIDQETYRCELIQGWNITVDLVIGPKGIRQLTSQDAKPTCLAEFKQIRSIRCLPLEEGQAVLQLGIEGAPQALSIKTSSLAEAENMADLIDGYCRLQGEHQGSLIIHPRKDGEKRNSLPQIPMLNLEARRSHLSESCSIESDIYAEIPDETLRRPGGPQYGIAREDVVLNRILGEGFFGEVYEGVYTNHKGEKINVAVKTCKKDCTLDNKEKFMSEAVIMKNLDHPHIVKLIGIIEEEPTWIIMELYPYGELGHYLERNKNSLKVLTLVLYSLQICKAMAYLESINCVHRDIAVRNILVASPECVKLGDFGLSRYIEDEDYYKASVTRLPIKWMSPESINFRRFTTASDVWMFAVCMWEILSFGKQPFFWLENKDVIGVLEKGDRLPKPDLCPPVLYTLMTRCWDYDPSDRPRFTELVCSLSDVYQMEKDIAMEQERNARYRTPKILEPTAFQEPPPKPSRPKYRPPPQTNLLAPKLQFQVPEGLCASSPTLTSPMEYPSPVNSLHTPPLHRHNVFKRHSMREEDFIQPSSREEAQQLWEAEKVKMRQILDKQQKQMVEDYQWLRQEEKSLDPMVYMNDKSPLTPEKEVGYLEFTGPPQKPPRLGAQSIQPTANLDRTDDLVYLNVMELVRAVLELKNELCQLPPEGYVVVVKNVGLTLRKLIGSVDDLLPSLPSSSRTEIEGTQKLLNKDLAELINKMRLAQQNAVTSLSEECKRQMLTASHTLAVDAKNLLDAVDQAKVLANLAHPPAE

What was measured:
Test in all cases: co-IP
Myc-tagged HIPK4 = molecular target: T1, Myc-tagged HIPK4 (UniProt Q8NE63)
T1 sequence: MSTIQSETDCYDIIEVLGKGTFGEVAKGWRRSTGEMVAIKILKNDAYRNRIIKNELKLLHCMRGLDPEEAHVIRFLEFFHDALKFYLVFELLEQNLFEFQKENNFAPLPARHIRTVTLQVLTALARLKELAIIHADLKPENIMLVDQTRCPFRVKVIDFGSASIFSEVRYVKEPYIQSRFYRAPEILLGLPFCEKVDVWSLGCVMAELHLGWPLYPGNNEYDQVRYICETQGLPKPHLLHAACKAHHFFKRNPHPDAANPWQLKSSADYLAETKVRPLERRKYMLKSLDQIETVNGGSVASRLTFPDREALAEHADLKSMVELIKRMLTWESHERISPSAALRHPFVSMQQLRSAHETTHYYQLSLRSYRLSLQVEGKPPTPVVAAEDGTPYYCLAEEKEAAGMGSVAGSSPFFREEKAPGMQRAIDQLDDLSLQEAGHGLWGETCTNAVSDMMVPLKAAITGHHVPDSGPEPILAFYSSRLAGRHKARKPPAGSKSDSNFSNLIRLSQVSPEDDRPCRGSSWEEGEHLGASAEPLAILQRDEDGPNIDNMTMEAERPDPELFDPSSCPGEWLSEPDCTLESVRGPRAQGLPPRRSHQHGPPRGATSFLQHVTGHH

[1] = molecular target: Myc-tagged PYK2 (protein-tyrosine kinase 2-beta) (UniProt Q14289)
Myc-tagged JNK2 = Myc-tagged JNK2 (UniProt P45984)
Myc-tagged ARK5 = molecular target: T2, Myc-tagged ARK5 (UniProt O60285)
T2 sequence: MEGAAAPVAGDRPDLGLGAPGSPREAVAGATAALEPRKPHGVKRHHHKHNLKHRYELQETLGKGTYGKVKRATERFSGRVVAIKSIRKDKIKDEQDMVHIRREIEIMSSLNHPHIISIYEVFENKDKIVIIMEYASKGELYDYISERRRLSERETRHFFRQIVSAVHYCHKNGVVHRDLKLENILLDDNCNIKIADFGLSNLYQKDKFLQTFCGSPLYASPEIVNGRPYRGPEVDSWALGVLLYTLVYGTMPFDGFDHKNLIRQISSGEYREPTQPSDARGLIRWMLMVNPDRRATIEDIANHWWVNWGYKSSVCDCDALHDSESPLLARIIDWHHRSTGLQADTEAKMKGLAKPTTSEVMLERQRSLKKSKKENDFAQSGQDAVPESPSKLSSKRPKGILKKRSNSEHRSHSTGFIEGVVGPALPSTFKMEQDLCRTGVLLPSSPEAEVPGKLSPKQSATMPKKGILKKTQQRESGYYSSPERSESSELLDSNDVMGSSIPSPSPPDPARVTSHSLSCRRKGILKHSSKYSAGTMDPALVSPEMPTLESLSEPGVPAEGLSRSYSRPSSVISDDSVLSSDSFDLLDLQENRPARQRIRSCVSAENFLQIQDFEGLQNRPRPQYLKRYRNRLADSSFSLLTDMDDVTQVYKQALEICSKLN

HA-tagged IRF5 (Interferon regulatory factor 5) (from UniProt Q13568-2)
binding (Myc-tagged HIPK4): binds weakly | binding [1]: binds | binding (Myc-tagged JNK2): binds weakly | binding (Myc-tagged ARK5): binds weakly
